Experimental findings from article PMC9106297, “Structure of a TRAPPII-Rab11 activation intermediate reveals GTPase substrate selection mechanisms” (Science Advances, 2022) are described below.

Protein sequences, listed by entry. Tags and fused reporters are not part of them. Lines headed by an entry give the natural chain unless they say otherwise; changes in a name come on top.
UniProt P36149: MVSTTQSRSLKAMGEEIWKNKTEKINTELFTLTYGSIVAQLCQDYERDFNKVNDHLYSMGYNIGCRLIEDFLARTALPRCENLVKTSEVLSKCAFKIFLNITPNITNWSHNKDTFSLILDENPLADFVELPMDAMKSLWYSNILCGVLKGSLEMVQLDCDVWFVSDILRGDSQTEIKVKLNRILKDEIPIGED
UniProt Q03660: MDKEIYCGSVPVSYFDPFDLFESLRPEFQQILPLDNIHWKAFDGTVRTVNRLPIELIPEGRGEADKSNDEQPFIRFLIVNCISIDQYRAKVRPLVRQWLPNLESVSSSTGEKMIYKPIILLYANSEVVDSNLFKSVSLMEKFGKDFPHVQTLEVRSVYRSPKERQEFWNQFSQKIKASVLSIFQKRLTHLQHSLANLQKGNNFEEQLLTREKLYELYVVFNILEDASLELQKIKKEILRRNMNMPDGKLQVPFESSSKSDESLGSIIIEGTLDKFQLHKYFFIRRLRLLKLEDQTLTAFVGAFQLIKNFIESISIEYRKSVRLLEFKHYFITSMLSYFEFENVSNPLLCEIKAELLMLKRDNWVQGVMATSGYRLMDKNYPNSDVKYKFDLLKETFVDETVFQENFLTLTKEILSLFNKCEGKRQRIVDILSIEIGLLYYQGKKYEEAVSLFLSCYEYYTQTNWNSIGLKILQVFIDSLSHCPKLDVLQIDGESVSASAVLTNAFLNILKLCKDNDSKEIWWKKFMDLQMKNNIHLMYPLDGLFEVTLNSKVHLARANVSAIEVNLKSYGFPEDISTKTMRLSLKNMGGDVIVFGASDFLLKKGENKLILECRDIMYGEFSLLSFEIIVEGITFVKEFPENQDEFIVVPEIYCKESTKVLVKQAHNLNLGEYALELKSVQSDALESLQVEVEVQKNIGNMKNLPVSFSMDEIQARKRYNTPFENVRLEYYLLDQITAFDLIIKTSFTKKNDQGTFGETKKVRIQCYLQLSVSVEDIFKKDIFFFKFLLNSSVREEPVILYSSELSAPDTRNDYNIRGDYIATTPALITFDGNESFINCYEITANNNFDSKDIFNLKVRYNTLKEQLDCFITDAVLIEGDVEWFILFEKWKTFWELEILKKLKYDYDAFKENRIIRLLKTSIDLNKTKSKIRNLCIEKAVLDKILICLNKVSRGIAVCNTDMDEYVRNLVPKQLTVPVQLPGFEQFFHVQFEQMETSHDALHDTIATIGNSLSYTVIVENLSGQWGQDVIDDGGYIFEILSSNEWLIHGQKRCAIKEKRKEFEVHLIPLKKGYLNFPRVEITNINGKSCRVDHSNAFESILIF
UniProt P46944: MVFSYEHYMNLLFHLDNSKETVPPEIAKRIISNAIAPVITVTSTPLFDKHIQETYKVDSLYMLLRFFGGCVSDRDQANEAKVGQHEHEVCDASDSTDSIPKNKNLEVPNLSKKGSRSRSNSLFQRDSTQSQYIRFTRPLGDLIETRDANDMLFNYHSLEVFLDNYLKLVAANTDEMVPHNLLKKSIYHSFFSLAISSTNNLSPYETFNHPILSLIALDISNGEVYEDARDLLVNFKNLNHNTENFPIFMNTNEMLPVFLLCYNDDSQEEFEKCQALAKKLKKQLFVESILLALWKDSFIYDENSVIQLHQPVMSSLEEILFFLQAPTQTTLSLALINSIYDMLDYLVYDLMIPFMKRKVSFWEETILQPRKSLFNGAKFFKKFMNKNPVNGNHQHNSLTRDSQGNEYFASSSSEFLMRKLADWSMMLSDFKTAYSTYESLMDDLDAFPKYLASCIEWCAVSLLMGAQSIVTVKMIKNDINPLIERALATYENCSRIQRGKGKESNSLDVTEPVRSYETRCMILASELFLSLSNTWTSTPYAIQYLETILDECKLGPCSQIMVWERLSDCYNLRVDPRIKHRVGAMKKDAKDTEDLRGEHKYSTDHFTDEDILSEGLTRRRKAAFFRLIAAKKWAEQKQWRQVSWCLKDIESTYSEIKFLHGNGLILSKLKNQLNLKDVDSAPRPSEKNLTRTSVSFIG

Numbering of substitutions follows the chain as printed. No constants are given. Whether binding was seen depends on the method and setting. Some entries that bind do so weakly or less than the wild type. For some of these results: Sequences can lack the tags named with a protein.

For experiment [1], the target named is T1, mRFPmars-Rab11/Ypt32(D129N) HVD truncation, residues 208 to 215 removed (GRab-IT bait) (S. cerevisiae) (UniProt P51996).
T1 sequence: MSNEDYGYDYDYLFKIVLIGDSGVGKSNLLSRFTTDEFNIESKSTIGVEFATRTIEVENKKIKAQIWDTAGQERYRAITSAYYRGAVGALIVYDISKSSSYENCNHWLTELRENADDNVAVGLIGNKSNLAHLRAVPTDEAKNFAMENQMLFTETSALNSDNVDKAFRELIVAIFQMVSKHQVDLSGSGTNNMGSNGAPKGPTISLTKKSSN
As to the kind of experiment: GRab-IT (GEF-Rab Interaction Test), ectopic localization assay by fluorescence microscopy; living yeast; nucleotide-free mRFPmars-Rab baits anchored on the mitochondrial membrane by the Fis1 transmembrane domain; recruitment of the mNeonGreen-tagged GEF (Trs130 or Trs85) quantified by Manders overlap, >=30 cells; cells grown at 30°C.

Experiment [2] deals with T2, mRFPmars-Rab11/Ypt32(D129N) with the Fis1 transmembrane domain (nucleotide-free GRab-IT bait, 'wild type') (S. cerevisiae) (UniProt P51996).
T2 sequence: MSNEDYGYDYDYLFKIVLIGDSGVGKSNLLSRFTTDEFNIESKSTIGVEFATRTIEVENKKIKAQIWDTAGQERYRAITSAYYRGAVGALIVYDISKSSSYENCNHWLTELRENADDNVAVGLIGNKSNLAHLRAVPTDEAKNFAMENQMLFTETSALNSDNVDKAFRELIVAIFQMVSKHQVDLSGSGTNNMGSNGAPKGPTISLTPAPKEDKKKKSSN
The experiment is described as above.

Experiment [3] deals with TRAPPII complex (transport protein particle II), endogenous, purified from yeast (S. cerevisiae) (UniProt P36149). As to the kind of experiment: cryo-EM structure; TRAPPII purified from yeast, incubated with tenfold molar excess of Rab11/Ypt32-7xHis and calf intestine alkaline phosphatase at 4°C overnight (nucleotide-free Rab), complex purified on Calmodulin Sepharose and by SEC; 10 mM tris (pH 8.0), 150 mM NaCl, 0.1% CHAPS, 1 mM Mg acetate, 1 mM dithiothreitol; single-particle cryo-EM; both purified. (In gel filtration, larger molecules generally elute earlier.)

As to “TRAPPII complex in yeast cells, with Trs130-mNeonGreen (from UniProt Q03660 1-1102; Q04183 1-1289; P32893 1-560; P32613 1-152; P36149 1-193; Q03630 1-159; P38334 1-175; Q03784 1-219; Q03337 1-283; Q99394 1-268)”, the values for the binding result in experiment [1] and in experiment [2] were “no binding” and “binds”, respectively. On to “TRAPPIII complex in yeast cells, with Trs85-mNeonGreen (from UniProt P46944 1-698; P36149 1-193; Q03630 1-159; P38334 1-175; Q03784 1-219; Q03337 1-283; Q99394 1-268)”, for which the binding entry in experiment [2] is listed as “no binding”.

B1: Rab11/Ypt32-7xHis (natural protein, S. cerevisiae, UniProt P51996 1-220, looked up)
chain: T2 sequence with N129D
notes: Ypt32 (yeast Rab11 paralog), S. cerevisiae; the C-terminal cysteines (residues 221 and 222) were substituted with the 7xHis tag; Made nucleotide-free with calf intestine alkaline phosphatase for the complex with TRAPPII; also called nucleotide-free Rab11/Ypt32; not shown: GST, N-terminal, cleaved; 7xHis, C-terminal, kept
In the case of B1, in experiment [3], the binding result is given as “binds”.
